Measurements reported in PubChem BioAssay AID1259308 (NCATS, 2017).

Purpose: 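Genes whose loss raises luciferase production in HEK293 cells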 (primary screen)
System: human HEK293 embryonic kidney cells stably expressing firefly luciferase (HEK-CMV-Luc2-Hygro)
Knock-down reagent: single siRNA against human genes, 0.8 pmol siRNA per well
Duration: 72 h
Read-out: 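Reporter luminescence and viable-cell signal on separate replicate plates, given as percent of non-targeting control and median/MAD z-scores, plus per-cell luciferase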
Scale: total luciferase, z-score and total luciferase, % of control: higher = more reporter protein produced; luciferase per cell, z-score: higher = more reporter output per viable cell; viable cells, % of control: higher = more viable cells
Call rule: 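Active when the median/MAD z-score for overall luciferase is greater than 3; a gene was taken forward for validation with new siRNAs if at least two of its three siRNAs passed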
Calls: active = raised luciferase; inactive = no rise
This is an unselected part of about 59,000 reagents tested. About 1,510 of all reagents (2.6%) count as active. 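Calls use total luciferase alone and ignore viability, so some active siRNAs may act by altering cell number.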 A number with no mark means an inactive call. Reagents against one gene are numbered here.

target | reagent no. | total luciferase, z-score | total luciferase, % of control | luciferase per cell, z-score | viable cells, % of control
HSDL2 | 1 | -0.695 | 68.1 | -1.07 | 101
HSDL2 | 2 | 0.967 | 101 | 0.0845 | 111
HSDL2 | 3 | -0.991 | 62.2 | -0.756 | 84.8
VPREB3 | 1 | 1.11 | 104 | 0.549 | 101
VPREB3 | 2 | 0.36 | 89 | 0.183 | 94.8
VPREB3 | 3 | 0.371 | 89.3 | 0.258 | 93.2
CCM2L | 1 | -0.989 | 62.2 | -1.31 | 98.3
CCM2L | 2 | 1.58 | 113 | 1.66 | 81.6
CCM2L | 3 | 0.698 | 95.8 | 1.29 | 76.1
VGLL2 | 1 | -0.25 | 76.9 | 0.0431 | 85
VGLL2 | 2 | 1.86 | 119 | 1.35 | 93
VGLL2 | 3 | -0.36 | 74.7 | -0.16 | 87.1
TIMELESS | 1 | -2.74 | 27.3 | -2 | 51.6
TIMELESS | 2 | -0.572 | 70.5 | 0.00884 | 78.6
TIMELESS | 3 | -0.512 | 71.7 | -1.05 | 106
PCDHGC3 | 1 | -1.12 | 59.6 | -1.26 | 92.7
PCDHGC3 | 2 | -1.02 | 61.6 | -0.559 | 79.8
PCDHGC3 | 3 | -0.0468 | 81 | 1.57 | 59.8
LAMP3 | 1 | 2.86 | 139 | 1.33 | 109
LAMP3 | 2 | 0.336 | 88.6 | -0.196 | 104
LAMP3 | 3 | 1.11 | 104 | 0.952 | 90.5
DNAJA1 | 1 | -1.19 | 58.2 | -0.0501 | 65.9
DNAJA1 | 2 | -0.268 | 76.6 | -0.663 | 102
DNAJA1 | 3 | 0.868 | 99.2 | 1.19 | 81
IL5RA | 1 | -0.467 | 72.6 | -0.465 | 91.7
IL5RA | 2 | -0.648 | 69 | -0.441 | 86.6
IL5RA | 3 | -0.111 | 79.7 | -0.155 | 92.7
DDX20 | 1 | -0.162 | 78.7 | -0.522 | 101
DDX20 | 2 | -0.294 | 76 | -0.545 | 98.1
DDX20 | 3 | 0.22 | 86.3 | -0.079 | 98.4
FZD7 | 1 | 2.5 | 132 | 2.48 | 76.5
FZD7 | 2 | 1.28 | 107 | 1.25 | 86.3
FZD7 | 3 | 0.082 | 83.5 | -0.434 | 105
PIP4K2A | 1 | 0.968 | 101 | 1.34 | 79.4
PIP4K2A | 2 | -0.703 | 67.9 | -0.507 | 86.7
PIP4K2A | 3 | 0.534 | 92.5 | -0.372 | 114
SGCA | 1 | 0.427 | 90.4 | 1.47 | 68.6
SGCA | 2 | -0.72 | 67.6 | 0.677 | 63.2
SGCA | 3 | -1.48 | 52.5 | -0.698 | 70.5
EEFSEC | 1 | 4.22 (active) | 166 | 2.27 | 102
EEFSEC | 2 | 2.35 | 129 | 1.15 | 106
EEFSEC | 3 | 3.21 (active) | 146 | 2.03 | 95.4
PTS | 1 | -0.896 | 64.1 | -0.431 | 80.2
PTS | 2 | -1.47 | 52.7 | -2.22 | 106
PTS | 3 | -0.61 | 69.8 | -0.335 | 85.1
LPL | 1 | -1.78 | 46.4 | -1.93 | 86.3
LPL | 2 | -0.241 | 77.1 | 0.486 | 75.8
LPL | 3 | -0.578 | 70.4 | -0.356 | 86.4
APCDD1L-DT | 1 | -0.396 | 74 | -0.708 | 99.6
APCDD1L-DT | 2 | 2.64 | 134 | 3.2 | 64.6
APCDD1L-DT | 3 | -0.85 | 65 | -0.988 | 94.2
SLC71A2 | 1 | -0.115 | 79.6 | 0.129 | 86
SLC71A2 | 2 | 0.179 | 85.5 | 0.00436 | 95.4
SLC71A2 | 3 | 0.87 | 99.2 | 1.4 | 76.8
KHDRBS1 | 1 | 0.398 | 89.8 | 0.873 | 79.7
KHDRBS1 | 2 | 2.75 | 137 | 2.96 | 70.1
KHDRBS1 | 3 | -0.816 | 65.7 | -0.276 | 78.9

Records above whose target name starts with L or l:
target | reagent no. | total luciferase, z-score | total luciferase, % of control | luciferase per cell, z-score | viable cells, % of control
LAMP3 | 1 | 2.86 | 139 | 1.33 | 109
LAMP3 | 2 | 0.336 | 88.6 | -0.196 | 104
LAMP3 | 3 | 1.11 | 104 | 0.952 | 90.5
LPL | 1 | -1.78 | 46.4 | -1.93 | 86.3
LPL | 2 | -0.241 | 77.1 | 0.486 | 75.8
LPL | 3 | -0.578 | 70.4 | -0.356 | 86.4
